Drawing on PMC5351981, this text covers binding for one molecule.

For this test, the target named is T1, GAGA factor (GAF) (Drosophila (endogenous in embryos)) (UniProt Q08605).
T1 sequence: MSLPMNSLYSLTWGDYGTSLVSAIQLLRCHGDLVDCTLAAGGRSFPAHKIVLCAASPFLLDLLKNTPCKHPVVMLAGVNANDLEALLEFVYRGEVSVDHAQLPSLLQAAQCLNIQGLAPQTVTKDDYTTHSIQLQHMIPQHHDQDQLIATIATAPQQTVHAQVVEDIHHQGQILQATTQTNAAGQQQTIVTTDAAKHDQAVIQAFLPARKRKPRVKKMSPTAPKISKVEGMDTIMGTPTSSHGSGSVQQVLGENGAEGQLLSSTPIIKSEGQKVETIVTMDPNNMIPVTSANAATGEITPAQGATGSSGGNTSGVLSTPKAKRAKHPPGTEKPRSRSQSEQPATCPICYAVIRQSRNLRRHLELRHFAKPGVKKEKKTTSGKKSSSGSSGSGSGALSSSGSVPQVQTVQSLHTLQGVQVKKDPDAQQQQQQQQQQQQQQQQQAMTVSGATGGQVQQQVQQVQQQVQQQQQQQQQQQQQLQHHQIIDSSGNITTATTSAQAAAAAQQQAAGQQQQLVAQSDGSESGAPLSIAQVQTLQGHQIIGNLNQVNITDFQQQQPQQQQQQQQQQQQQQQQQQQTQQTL
Nature of the test: co-IP; 100 ug nuclear extract of 0-12 h Drosophila embryos incubated with anti-GAF antibodies on protein A beads or beads alone (Mock), in the presence or absence of DNaseI (0.5 U); washed with HEMG-500 plus 0.1% Nonidet P-40; co-IP'd proteins detected by Western blotting.

No constants are given. Whether binding was seen depends on the method and setting. In cells and extracts the contact can be indirect. Some entries that bind do so weakly or less than the wild type.

B1: Su(z)12 (protein, UniProt Q9NJG9 1-900)
chain: MAPAKKREKDSNPDGSAANGIIGLTHGAPDASNAGSTVPPTAEGQVKLNGHQQEQELFLQAFEKPTQIYRYLRNRHETNPIFLNRTLSYMKERMSRNNKKRISFQVNSMLESITQKSEAVSQNYLHVIYDSLHEKLPARLDNESGEDLLQEQLLCEAGESVSVETTLYKITRSKRKDSTLDFQELLSKCSQIVYNPKDRVGEHATISIPLQTMRPMGEQHTLYKLLFRIKVLSPSTCNDENAETPPNKRSRPNEKMFGSELILYEKSSGFITEGEYEAMLQPLNSTSIKSFSPKKCTWETMPDSYIPLSLTYDVYQQSPMLKFHLTLSNEQLPEMISAPELQRYVQHLDAVAEMNYNNNNYNNNNNCSGLKNGSGGGNSTVCKTTPEHIQIVYNFMYSNNTRQQTEYTQELNCPWCGLDCLRLYALLKHLKLCHARFNFTYQPAGSGARIDVTINDAYDGSYAGSPYDLAGPSGSSFARTCGPVRRTSVTSLMVCRPRRQKTCLDEFLELDEDEISNQRSYITGHNRLYHHTETCLPVHPKELDIDSEGESDPLWLRQKTIQMIDEFSDVNEGEKELMKLWNLHVMRHGFVGDCQLPIACEMFLDAKGTEIVRKNLYRNFILHMCSLFDYGLIAAETVYKTVQKLQGLLSKYAAGQELMQRQREEQLKYWLDVGMHKKQEDPKTLKSPQKPAPPADQASTSSASTSGSGSGSSSMQPPKRMPAHLKRGSAASSPGVQSKGTENGTNGSNSSSSNSKNVAKKSADQPLSTLANTRERRSEYGQKRNVSGSRLAATPASKRKLSSKDNTVLNKRQRYSDGSPGTGIGNGHGGGSGSGANRNKSNNHSLPATSNNASSSSSNSKRAIARRRSTSERTKASGSTGGGAGGVRTRLSVPAKYERR
Take B1: the binding entry is given as “binds”.
